# Results taken from publication doi:10.1101/2020.07.29.223594.
# Amino acid sequences for entries named in this document (tags omitted).
# UniProt O09106: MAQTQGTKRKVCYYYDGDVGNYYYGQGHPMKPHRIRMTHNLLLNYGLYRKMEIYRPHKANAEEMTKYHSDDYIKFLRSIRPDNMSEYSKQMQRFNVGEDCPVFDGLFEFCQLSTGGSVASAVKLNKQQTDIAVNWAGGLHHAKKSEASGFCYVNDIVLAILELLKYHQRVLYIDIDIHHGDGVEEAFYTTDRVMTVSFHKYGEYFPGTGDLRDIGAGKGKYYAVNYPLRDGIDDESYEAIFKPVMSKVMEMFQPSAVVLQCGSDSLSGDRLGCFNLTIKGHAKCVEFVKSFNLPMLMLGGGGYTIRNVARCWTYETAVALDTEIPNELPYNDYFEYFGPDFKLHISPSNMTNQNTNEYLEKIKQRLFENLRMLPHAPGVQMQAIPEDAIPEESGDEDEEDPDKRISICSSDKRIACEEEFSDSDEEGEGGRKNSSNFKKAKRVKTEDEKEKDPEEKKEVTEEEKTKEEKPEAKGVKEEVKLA
# These are yes or no findings as the source states them, for the method shown. Binding seen in cells or lysates may run through a third protein. Some results given as binding are weak or reduced against the parent protein; the word gives no strength.
# Target: T1, APOBEC2 (mouse (endogenous in C2C12)) (UniProt Q9WV35)
# T1 sequence: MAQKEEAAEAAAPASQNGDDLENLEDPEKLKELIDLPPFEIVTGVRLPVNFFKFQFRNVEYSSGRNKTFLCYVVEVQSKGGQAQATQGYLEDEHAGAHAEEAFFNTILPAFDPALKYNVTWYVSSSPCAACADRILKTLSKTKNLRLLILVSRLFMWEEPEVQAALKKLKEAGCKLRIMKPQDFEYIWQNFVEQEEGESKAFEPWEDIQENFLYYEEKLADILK
# Assay: co-IP
substance,measurement,value
histone deacetylase 1 (HDAC1) (from UniProt O09106 1-482),binding,binds
